Some of the results follow. Repeats in this data set agree poorly, so a single value says little.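 U2OS cells carrying ACE2 were mixed with U2OS cells carrying full-length spike, and fusion was scored by imaging as the share of nuclei showing both cell types' fluorescent markers. A compound counts as an inhibitory hit when it is non-toxic and its fusion z-score falls below -3, meaning more than three standard deviations below the plate's DMSO wells.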
test system: U2OS ACE2 x SARS-CoV-2 spike co-culture; experiment: cell-cell fusion (fraction fused) z-score vs plate DMSO control; higher = more fusion; settings: 30 µM; 5 h; toxicity class: non-toxic, passed QC

SMILES	cell-cell fusion (z-score)
CCc1ccc(CCOc2ccc(CC3SC(=O)NC3=O)cc2)nc1 (stereo not drawn) [Pioglitazone]	inactive: 2.46
CC(=O)Nc1cc([As](=O)(O)O)ccc1O	inactive: 2.81
O=C1C=C(O)C(=O)c2ccccc21	inactive: 1.5
CCN(CC)CCOC(=O)c1cc(Cl)c(N)cc1OC.Cl [SDZ-205,557 hydrochloride]	inactive: -2.39
O=C(C1CCCCC1)N1CC(=O)N2CCc3ccccc3C2C1 (stereo not drawn) [Praziquantel]	inactive: 2.2
CCOC(=O)N1CCC(=C2c3ccc(Cl)cc3CCc3cccnc32)CC1 [Loratadine]	inactive: 1.88
CC(=O)O[C@]1(C(C)=O)CC[C@H]2[C@@H]3C[C@H](C)C4=CC(=O)C=C[C@]4(C)[C@@]3(F)[C@@H](O)C[C@@]21C [Fluorometholone Acetate]	inactive: 2.74
Br.Br.N=C(N)SCCc1ccc(CCSC(=N)N)cc1 [1,4-PB-ITU dihydrobromide]	inactive: 1.78
Cl.NC1CC1c1ccccc1 (stereo not drawn) [Tranylcypromine hydrochloride]	inactive: -1.76
CC(C)(C)C(=O)Oc1ccc(S(=O)(=O)Nc2ccccc2C(=O)NCC(=O)[O-])cc1.[Na+] [Sivelestat sodium salt hydrate]	inactive: 2.73
O=C([O-])/C=C/C(=O)[O-].[Fe+2] [Ferrous fumarate]	inactive: 2.72
Br.CN1C2CC(OC(=O)[C@H](CO)c3ccccc3)C[C@H]1[C@H]1OC21 (stereo partly drawn)	inactive: -2.29
Cl.N=C(N)NCCC[C@H](N)C(=O)O [L-arginine monohydrochloride]	inactive: 3.22
COC(=O)C1=C(C)NC(C)=C(C(=O)OC)C1c1ccccc1[N+](=O)[O-]	inactive: 0.182
Oc1ccc(Cl)cc1Cc1cc(Cl)ccc1O	inactive: -2.11
O=c1[nH]c(=O)c2nc3ccccc3nc2[nH]1 [Alloxazine]	inactive: 1.52
C#CCCCCCCCCCCCC(O)CC(O)CO.C=CCCCCCCCCCCCC(O)CC(O)CO (stereo not drawn)	inactive: 1.67
CC(C)(c1ccc(O)cc1)c1ccc(O)cc1	inactive: 1.97
O=C(Nc1ccc([N+](=O)[O-])cc1Cl)c1cc(Cl)ccc1O [Niclosamide]	inactive: 0.0182
CCC(=O)O[C@H]1CCC2C3CCC4=CC(=O)CC[C@]4(C)C3CC[C@@]21C (stereo partly drawn)	inactive: 1.41
Br.CN1CCc2cc(O)cc3c2[C@H]1Cc1ccc(O)c(O)c1-3 [R(-)-2,10,11-Trihydroxyaporphine hybrobromide]	inactive: -1.37
OC[C@@H](O)[C@@H](O)[C@H](O)[C@H](O)CO [D-Mannitol]	inactive: 2.61
COC(=O)[C@@H]1C[C@H](OC(C)=O)C(=O)[C@H]2[C@@]1(C)CC[C@H]1C(=O)O[C@H](c3ccoc3)C[C@]21C	inactive: 1.94
CCCc1c(OCCCOc2ccc(OCC(=O)O)cc2)ccc(C(C)=O)c1O	inactive: 3.39
CC1=C(C(=O)O)N2C(=O)[C@@H](NC(=O)C(N)c3ccc(O)cc3)[C@H]2SC1 (stereo partly drawn)	inactive: 1.29

SMILES	cell-cell fusion (z-score)
Br.COC(=O)C1=CCCN(C)C1	inactive: 3.35
Br.COC(=O)C1=CCCN(C)C1 [Arecoline hydrobromide]	inactive: 1.92
Cc1cccc([C@H](C)c2cnc[nH]2)c1C [Dexmedetomidine]	inactive: 1.65
CC(C)NCC(O)COc1ccc(CCOCC2CC2)cc1.Cl (stereo not drawn) [Betaxolol hydrochloride]	inactive: 2.56
CCNC(=O)c1noc(-c2cc(C(C)C)c(O)cc2O)c1-c1ccc(CN2CCOCC2)cc1	inactive: 1.63
O=C(CCCCC(=O)Nc1c(I)cc(I)c(C(=O)O)c1I)Nc1c(I)cc(I)c(C(=O)O)c1I	inactive: 3.91
Br.Cc1onc(O)c1CC(N)C(=O)O (racemic) [(±)-AMPA hydrobromide]	inactive: 0.74
O=C(O)c1cc(-c2ccc(F)cc2F)ccc1O	inactive: 0.626
CO/N=C1\CN(c2nc3c(cc2F)c(=O)c(C(=O)O)cn3C2CC2)CC1CN.CS(=O)(=O)O (stereo not drawn)	inactive: 5.65
Cc1c(C)c2c(c(C)c1O)CCC(C)(C(=O)O)O2 (stereo not drawn)	inactive: 4.17
CC1(C)CCC=[N+]1[O-] [5,5-Dimethyl-1-pyrroline-N-oxide]	inactive: 2.2
Nc1ncnc2c1ncn2C1CCCO1 (stereo not drawn)	inactive: -1.5
Br.COc1ccc2c(c1)[C@]13CCCC[C@@H]1[C@H](C2)N(C)CC3	inactive: 0.382
CNCc1ccccc1.Cl	inactive: 2.1
CC(C)(C)c1cc(C=C(C#N)C#N)cc(C(C)(C)C)c1O [Tyrphostin 9]	inactive: 2.28
CC(C)(C)NCC(O)c1ccc(O)c(CO)c1 (stereo not drawn)	inactive: 3.9
O=C1O[C@H]([C@@H](O)CO)C([O-])=C1O.[Na+] [Sodium ascorbate]	inactive: 1.8
CCC(=O)O[C@]1(C(=O)CCl)[C@@H](C)C[C@H]2[C@@H]3CCC4=CC(=O)C=C[C@]4(C)[C@@]3(F)[C@@H](O)C[C@@]21C [Clobetasol propionate]	inactive: -2.08
OC[C@H]1OC(O)[C@H](O)[C@@H](O)[C@@H]1O (stereo partly drawn) [D(+)-Glucose]	inactive: 3.1
NCCCC(=O)O	inactive: 2.03
CCCC(=O)O[C@]1(C(=O)COC(C)=O)CC[C@H]2[C@@H]3C[C@H](F)C4=CC(=O)C=C[C@]4(C)[C@@]3(F)[C@@H](O)C[C@@]21C [Difluprednate]	inactive: 2.38
CC(C)(C)NCC(O)COc1cccc2c1C[C@H](O)[C@H](O)C2 (stereo partly drawn) [Nadolol]	inactive: 2.32
C[C@]12CCC3c4ccc(O)cc4CCC3C1CC[C@@H]2O (stereo partly drawn)	inactive: 0.75
O=C(O[C@H]1C[N+]2(CCCOc3ccccc3)CCC1CC2)C(O)(c1cccs1)c1cccs1.[Br-] [Aclidinium bromide]	inactive: 1.09
C=C(C)[C@H]1CC=C(C(=O)O)CC1	inactive: 2.02

SMILES	cell-cell fusion (z-score)
Cl.Cn1ccc2cc3c(cc21)CCN3C(=O)Nc1cccnc1	inactive: 1.05
CC(C)N(CCC(C(N)=O)(c1ccccc1)c1ccccn1)C(C)C.O=P(O)(O)O (stereo not drawn)	inactive: 1.88
CC(C)N(CCC(C(N)=O)(c1ccccc1)c1ccccn1)C(C)C.O=P(O)(O)O (stereo not drawn) [Disopyramide phosphate]	inactive: 3.32
O.O=C([O-])C1=CS[C@@H]2/C(=C\c3cnc4n3CCOC4)C(=O)N12.[Na+]	inactive: 3.48
O.O=C([O-])C1=CS[C@@H]2/C(=C\c3cnc4n3CCOC4)C(=O)N12.[Na+] [BLI-489 hydrate]	inactive: 0.71
CC1OC1P(=O)([O-])[O-].[Ca+2] (stereo not drawn)	inactive: -0.858
Cc1onc(-c2c(Cl)cccc2Cl)c1C(=O)N[C@@H]1C(=O)N2[C@@H]1SC(C)(C)[C@@H]2C(=O)[O-].O.[Na+] [Dicloxacillin sodium monohydrate]	inactive: 2.4
CN1C(C(=O)Nc2ccccn2)=C(O)c2ccccc2S1(=O)=O	inactive: 0.932
CCN(CC)CCNC(=O)c1cc(Cl)c(N)cc1OC.Cl [Metoclopramide hydrochloride]	inactive: 1.92
CCN(CC)CCNC(=O)c1cc(Cl)c(N)cc1OC.Cl	inactive: 0.719
CCSCCC(N)C(=O)O (stereo not drawn)	inactive: 2.45
CO/N=C(\C(=O)N[C@@H]1C(=O)N2C(C(=O)[O-])=C(CSc3nc(=O)c([O-])nn3C)CS[C@H]12)c1csc(N)n1.CO/N=C(\C(=O)N[C@@H]1C(=O)N2C(C(=O)[O-])=C(CSc3nc(=O)c([O-])nn3C)CS[C@H]12)c1csc(N)n1.O.O.O.O.O.O.O.[Na+].[Na+].[Na+].[Na+] [Ceftriaxone sodium]	inactive: 1.46
C[C@](N)(Cc1ccc(O)c(O)c1)C(=O)O [L-alpha-Methyl DOPA]	inactive: 2.15
COc1c2occc2cc2ccc(=O)oc12	inactive: -0.384
CCC1NC(=O)c2cc(S(N)(=O)=O)c(Cl)cc2N1 (stereo not drawn)	inactive: 4.02
O.O.O.O=C([O-])C1[O][Sb]2[O]C(=O)C([O]2)C(C(=O)[O-])[O][Sb]2[O]C(=O)C1[O]2.[K+].[K+] (stereo not drawn)	inactive: 2.9
N=C(NCCC[C@H](N)C(=O)O)N[N+](=O)[O-] [NG-Nitro-L-arginine]	inactive: 2.38
C=C1[C@H]2CC[C@@]3(C)[C@H](c4ccoc4)OC(=O)C[C@]13O[C@H]1C[C@H](O)C(C)(C)[C@H](CC(=O)OC)[C@]12C [3-DEOXY-3beta-HYDROXYANGOLENSIC ACID METHYL ESTER]	inactive: 1.38
CNC(=O)c1cc(COc2nnc(Nc3ccc(Cl)cc3)c3ccoc23)ccn1 [Telatinib (BAY 57-9352)]	inactive: 0.742
Cc1ncc([N+](=O)[O-])n1C	inactive: 2.18
N[C@@H](CO)C(=O)O [serine]	inactive: 0.435
CCCCCCCCCCCCCCCC(=O)OC[C@H](NC(=O)C(Cl)Cl)[C@H](O)c1ccc([N+](=O)[O-])cc1	inactive: 1.06
COc1ccccc1OCCNCC(O)COc1cccc2[nH]c3ccccc3c12 (stereo not drawn) [Carvedilol]	active: -4.06
